Results: patent US12357695B2, “Peptides and nanoparticles for intracellular delivery of molecules” (AADIGEN, LLC, priority 2019, dated 2025)
Some results were stated once for a whole list of compounds, not compound by compound. Some ranges recur; such a range may be that of the whole group of compounds.

Experiments:
293T cells [1] = assay: Cellular delivery of pGL4 plasmid DNA expressing Luciferase, luciferase expression at 72 hrs; type: cell-based; conditions: for reduction of efficiency / luciferase expression in the presence of serum: complexes incubated 3 hrs in 25% serum prior transfection; for reduction of efficiency / luciferase expression in heparan sulfate: complexes incubated 3 hrs with heparan sulfate prior transfection
Procedure: FIGS. 2A-2C show luciferase expression in 293T cells treated with ADGN-peptide/pGL4 plasmid DNA complexes. 293T cells cultured in 48 well plates were transfected with ADGN-peptide nanoparticles. ADGN-100, ADGN-106, ADGN-100RI, ADGN-106RI, ADGN-100 Stearyl, ADGN-Hydro1, ADGN-Hydro2, ADGN-Hydro3, ADGN-Hydro4, ADGN-Hydro5, and ADGN-Hydro6 containing 0.17 μg pGL4 plasmid DNA were formed in sterile water, diluted in sterile water containing 5% Sucrose. ADGN-peptide nanoparticles were evaluated prior (FIG. 2A) and after filtration with 0.45 μm PES filters (FIG. 2B). FIG. 2C impact of peGylated ADGN-100 on the transfection efficiency. pGL4 luc plasmid (0.15 μg) were associated to ADGN-100 solution containing 5 to 50% of ADGN-100-PEG or to ADGN-100PEG. ADGN/pGL4 plasmid DNA complexes were incubated for 3 hrs in the presence of either 25% serum or heparan sulfate prior transfection. Luciferase expression was monitored 72 hours post transfection and results were reported as RLU (luminescence):mg of protein.
(§1) Complex formation with plasmid DNA. The following protocols were used for the transfection of 2-5 106 Cells or Cells at confluency of about 70-80% cultured in 24 well plates. ADGN peptide/plasmid DNA pGL4 particles were prepared at a 20:1 molar ratio of ADGN-Peptide/pGL4. using (0.2 μg). PGL4 plasmid (0.15 μg) was diluted in 20 μl of sterile water (GIBCO) at room temperature. 10 μl Final Peptide Solution was added to obtain a total volume of 20 μl. The volume was adjusted to 50 μl with sterile water and was mixed gently with vortex 1 min low speed and incubated 30 min at room temperature. Then the volume was made up to 100 μl by adding sterile water containing 5% sucrose, and the solution was mixed gently with vortex 1 min low speed and incubate 5 min at 37° C. and then was proceeded to cell transfection.
Transfection protocol. Protocol is reported for 24 well plate format. Cells were cultured in Dulbecco's Modified Eagle's Medium (DMEM), supplemented with 2 mM glutamine, 1% antibiotics (streptomycin 10,000 μg/mL, penicillin, 10,000 IU/mL) and 10% (w/v) foetal calf serum (FCS), at 37° C. in a humidified atmosphere containing 5% CO2. 24 well plates seeded with 150,000 cells the day prior to transfection were grown to 50-60% confluence and set up to be at about 70% confluences at the time of transfection. Before transfection, cells were washed twice with DMEM. […]
ADGN-peptides were evaluated for cellular delivery of pGL4 plasmid DNA expressing Luciferase in 293T cells. […] In order to evaluate the stability of the ADGN/pGL4 plasmid complexes in high serum and cell culture conditions, the complexes were incubated for 3 hrs in the presence of either 25% serum or heparan sulfate prior transfection, then 293T cells were transfected and Luciferase expression was monitored at 72 hrs.

[2] = DLS particle size and level of aggregation of ADGN-peptide/pGL4 plasmid DNA complexes; type: physicochemical; conditions: complexes with pGL4 plasmid DNA
Procedure: as §1
(§2) The ability of the different ADGN-peptides to form stable nanoparticles with DNA pGL4 a 5.6KpB plasmid expression Luciferase was analyzed. The particle sizes and level of aggregation were measured on DLS NanoZS (Malvern Ltd). The mean size and the polydispersity of the ADGN/plasmid DNA complexes were determined at 25° C. for 3 minute per measurement. In order to remove large particles, ADGN/plasmid DNA complexed were filtered using either PES or PVDF 0.45 μm filters. Data are shown in FIG. 10 for a mean of 3 separate experiments.

mice = assay: In vivo delivery of pGL4 plasmid DNA, intramuscular administration, bioluminescence imaging; conditions: IM, 2.5 μg pGL4 plasmid
Procedure: FIGS. 7A-7B show the potency of ADGN-peptide variants for in vivo delivery of Luciferase expressing plasmid pGL4 via intramuscular administration in mice. ADGN-peptide/pGL4 luc particles containing 2.5 μg plasmid DNA were formed in sterile water, and then diluted in 5% sucrose. Mice received IV injection of 25 μl ADGN-peptide/pGL4 complexes. Luciferase expression was monitored by bioluminescence imaging after 12 h, 24 h and 48h (A). FIG. 7B show bioluminescence imaging at 24 hr in control and treated groups.
Stable ADGN-peptides/pGL4.11 DNA were evaluated for in vivo delivery of Luciferase mRNA via intravenous and intramuscular administrations. Animals were treated with single dose of pGL4.11 plasmid DNA of 5 μg. via IV and 2.5 μg via intramuscular administration.
For IM administration, mice received 25 μl (2.5 μg of pGL4 plasmid) IV injection of either ADGN-100/PGL4, ADGN-106/PGL4, ADGN-100RI/PGL4, ADGN-100hydro1/PGL4, ADGN-100hydro6/PGL4, ADGN-100 stearyl/PGL4 or ADGN-100/PGL4 complexes containing 10% or 20% of ADGN-100PEG (2 animals per group). As control, mice from group 3 (2 animals per group) received IV injection of 25 μl of naked PGL4 plasmid (2.5 μg).
Luciferase expression was monitored by bioluminescence. Bioluminescence imaging was performed after 12, 24, 48 and 72 hrs. […]

293T cells [3] = assay: Cellular delivery of Luciferase mRNA, luciferase expression at 72 hrs; type: cell-based; conditions: 0.25 μg Luc mRNA
Procedure: FIGS. 1A-1C show luciferase expression in 293T cells treated with ADGN-peptide/mRNA complexes. 293T cells cultured in 48 well plates were transfected with ADGN-peptide nanoparticles. ADGN-100, ADGN-106, ADGN-100RI, ADGN-106RI, ADGN-100 Stearyl, ADGN-Hydro1, ADGN-Hydro2, ADGN-Hydro3, ADGN-Hydro4, ADGN-Hydro5, ADGN-Hydro6 and ADGN-peptide/ADGN-100PEG 10% nanoparticles containing 0.25 μg mRNA were formed in sterile water, diluted in sterile water containing 5% Sucrose and filtered with 0.45 μm PES filters. ADGN/mRNA complexes were incubated for 3 hrs in the presence of either 25% serum or heparan sulfate prior transfection. Luciferase expression was monitored 72 hours post transfection and results were reported as RLU (luminescence):mg of protein.
Complex formation with mRNA. […]
ADGN-peptides were evaluated for cellular delivery of Luciferase mRNA in 293T cells. A single dose of mRNA of 0.25 μg was evaluated. […] In order to evaluate the stability of the ADGN/mRNA complexes in high serum and cell culture conditions, the complexes were incubated for 3 hrs in the presence of either 25% serum or heparan sulfate prior transfection, then 293T cells were transfected and Luciferase expression was monitored at 72 hrs.
ADGN-106 peptides containing YIGSR targeting sequence were evaluated for cellular delivery of Luciferase mRNA in 293T cells. A single dose of mRNA of 0.25 μg was evaluated. […]

[4] = DLS particle size and level of aggregation of ADGN-peptide/mRNA complexes; type: physicochemical; conditions: complexes with mRNA
Procedure: as §1, with “with mRNA.” for “with plasmid DNA.”, “ADGN peptide/mRNA” for “ADGN peptide/plasmid DNA pGL4”, “of ADGN-Peptide/mRNA.” for “of ADGN-Peptide/pGL4.”, “using (0.25 μg) mRNA. Luc mRNA (0.25” for “using (0.2 μg). PGL4 plasmid (0.15”, “temperature. 5” for “temperature. 10”
as §2, with “mRNA” for “DNA pGL4 a 5.6KpB plasmid expression Luciferase”, “ADGN/mRNA” for “ADGN/plasmid DNA”, “8 and FIG. 9” for “10”

| Substance | reduction of efficiency / luciferase expression in the presence of serum (293T cells [1]) | reduction of efficiency / luciferase expression in heparan sulfate (293T cells [1]) | aggregates [2] | increase of luciferase expression in the muscle / efficiency relative to ADGN-100 (mice) | reduction of efficiency / luciferase expression after serum treatment (293T cells [3]; complexes incubated 3 hrs in 25% serum prior transfection) | reduction of efficiency / luciferase expression after heparan sulfate treatment (293T cells [3]; complexes incubated 3 hrs with heparan sulfate prior transfection) | aggregates [4] |
| --- | --- | --- | --- | --- | --- | --- | --- |
| Ac-GYVS-Aun-KWRSALWRWRLWRVRSWSR-NH2 (GYVSKWRSALWRWRLWRVRSWSR; N-acetyl; Aun linker; C-amide; VARIANT 1 N-terminal acetylation; VARIANT 23 C-terminal amidation; VARIANT 4, 5 Linked by a 11-amino-undecanoic acid) [ADGN-100 hydro-6] | 30-40% | 10-20% | less than 4% | 3-4 fold | – | – | – |
| Stearyl-βA-KWRSALWRWRLWRVRSWSR-NH2 (AKWRSALWRWRLWRVRSWSR; stearyl-betaA; C-amide; VARIANT 1 beta-A; VARIANT 1 N-terminal acetylation; VARIANT 20 C-terminal amidation; VARIANT 1 Linked to a Stearyl group) [ADGN-100 Stearyl] | 30-40% | 10-20% | – | 3-4 fold | 30-40% | 10-20% | – |
| akwllrwlsrwlrwlarwlr (AKWLLRWLSRWLRWLARWLR; D-amino acids retro-inverso) [ADGN-106-RI] | – | – | – | – | – | – | less than 3% |
| rswsrvrwlrwrwgasrwk (RSWSRVRWLRWRWGASRWK; D-amino acids retro-inverso) [ADGN-100-RI] | – | – | less than 4% | – | – | – | less than 4% |
